# Among all 300,000 compounds or so, about 3,700 (1.2%) were called active. The inconclusive results got no clear call from the source; some entries with a clear call stand among them for comparison. Calls follow the shape of the full dose curve; tested in HEK293 cells. Potencies of inconclusive entries are doubtful fits and often do not repeat.
# Experiment: qHTS for Inhibitors of binding or entry into cells for Lassa Virus; also: nearly all actives have a fitted effect of over 50% in size
# Conditions: Lassa virus pseudotype entry inhibition, cell reporter; activity change, negative = inhibition: at 37.9 µM (top of the series) unless noted
# % is scaled to controls: 0 for no effect and ±100 for the full control effect; potency is read from the fitted curve at half-maximal effect.
Compound,Potency,"activity change, negative = inhibition"
O=C(COC(=O)C12CC3CC(CC(C3)C1)C2)Nc1ccc([N+](=O)[O-])cc1Br,"inconclusive: 4.47 µM [inhibitor, single point]",–
CC(C)Cc1nn2c(=O)cc(COC(=O)c3ccc(NC(=O)c4cccs4)cc3)nc2s1,"inconclusive: 35.5 µM [activator, single point]",–
Cc1ccc(Cl)cc1NC(=O)c1ccc(-c2nc(CSc3ccccc3)c(C)o2)cc1,"inconclusive: 1.78 µM [inhibitor, partial curve, poor fit]",–
C=CCn1c(O)c(C(CC)=NCc2ccc3c(c2)OCO3)c(=O)[nH]c1=O,"inconclusive: 6.31 µM [inhibitor, partial curve, poor fit]",–
Cc1ccc(-n2nnnc2Sc2ccc(S(=O)(=O)NCCN(C)C)cc2[N+](=O)[O-])cc1,"inconclusive: 1.58 µM [inhibitor, full curve, poor fit]",–
Cc1nc2ccc(-c3nc4ccccc4[nH]3)cc2[nH]1,"inconclusive: 6.31 µM [inhibitor, full curve, poor fit]",–
CC(Nc1ccccc1N1CCCCC1)C(=O)N1CCc2ccccc21 (stereo not drawn),–,inactive: -3.07%
CSc1nc(-c2ccccc2)nn1C(=O)c1ccccc1,–,inactive: -3.31%
COc1ccc(Cn2c(C3CC3)nc3ccc(NC(=O)C4CC4)cc3c2=O)cc1,"inconclusive: 0.708 µM [activator, single point]",–
COc1cc(/C=N/NC(=O)C2COc3ccccc3O2)cc(OC)c1OC (stereo not drawn),"inconclusive: 23.1 µM [inhibitor, partial curve, poor fit]",–
Cc1ccc(C(C(=O)NC(C)(C)C)N(CCCN2CCOCC2)C(=O)c2ccc(-c3ccccc3)[nH]2)o1 (stereo not drawn),–,inactive: 11.9%
CC1(C)CC(=O)C2=C(C1)N=C1c3ccccc3C(=O)C1C2c1ccc(Cl)cc1 (stereo not drawn),"inconclusive: 15.8 µM [inhibitor, partial curve, poor fit]",–
Cc1ccc(Nc2nnc(SCC(=O)c3ccc(O)cc3O)s2)cc1,–,inactive: 11.8% [at 46.1 µM]
O=C1/C(=C/Nc2cccc([N+](=O)[O-])c2)CCc2ccccc21,"inconclusive: 3.26 µM [activator, single point]",–
Cc1ccc(N=Nc2ccc(O)c3ncccc23)cc1,"inconclusive: 35.5 µM [inhibitor, single point]",–
COCC(=O)N1CCCc2ccccc21,"inconclusive: 0.231 µM [activator, single point]",–
NC(=O)c1cc(-c2ccncc2)cc(-c2ccccc2)c1N,"inconclusive: 31.5 µM [inhibitor, single point]",–
COc1ccc(-c2cnc(C)o2)cc1S(=O)(=O)Nc1ccc(C)c(F)c1,"inconclusive: 0.562 µM [inhibitor, full curve, poor fit]",–

# Single entries from the results shown:
# `COc1cc(/C=N/NC(=O)C2COc3ccccc3O2)cc(OC)c1OC` (stereo not drawn) – Potency: inconclusive: 23.1 µM [inhibitor, partial curve, poor fit]
# `CC1(C)CC(=O)C2=C(C1)N=C1c3ccccc3C(=O)C1C2c1ccc(Cl)cc1` (stereo not drawn) – Potency: inconclusive: 15.8 µM [inhibitor, partial curve, poor fit]

# From PubChem BioAssay AID540256 (National Center for Advancing Translational Sciences (NCATS), 2011)
